According to patent US20090209474A1, “NOVEL USES FOR DRUGS TARGETING GLUTAMINE SYNTHETASE” (NEWTHERA, priority 2005, published 2009):
Where two headings read alike, the source gives them in different places.

Protein sequences, listed by entry. Tags and fused reporters are not part of them. Residues count along the entry.
UniProt P09606, 2-373 limits assumed: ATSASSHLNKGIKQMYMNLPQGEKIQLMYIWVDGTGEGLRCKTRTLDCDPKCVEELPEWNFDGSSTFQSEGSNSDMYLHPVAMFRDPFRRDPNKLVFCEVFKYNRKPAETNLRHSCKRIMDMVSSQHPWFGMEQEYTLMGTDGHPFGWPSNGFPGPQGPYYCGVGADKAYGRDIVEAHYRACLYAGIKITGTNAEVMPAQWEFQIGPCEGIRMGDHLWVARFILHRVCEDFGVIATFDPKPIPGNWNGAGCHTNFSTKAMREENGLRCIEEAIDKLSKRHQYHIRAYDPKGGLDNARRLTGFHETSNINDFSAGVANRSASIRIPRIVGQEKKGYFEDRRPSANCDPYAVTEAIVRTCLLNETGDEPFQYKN
UniProt P15105, 2-373 limits assumed: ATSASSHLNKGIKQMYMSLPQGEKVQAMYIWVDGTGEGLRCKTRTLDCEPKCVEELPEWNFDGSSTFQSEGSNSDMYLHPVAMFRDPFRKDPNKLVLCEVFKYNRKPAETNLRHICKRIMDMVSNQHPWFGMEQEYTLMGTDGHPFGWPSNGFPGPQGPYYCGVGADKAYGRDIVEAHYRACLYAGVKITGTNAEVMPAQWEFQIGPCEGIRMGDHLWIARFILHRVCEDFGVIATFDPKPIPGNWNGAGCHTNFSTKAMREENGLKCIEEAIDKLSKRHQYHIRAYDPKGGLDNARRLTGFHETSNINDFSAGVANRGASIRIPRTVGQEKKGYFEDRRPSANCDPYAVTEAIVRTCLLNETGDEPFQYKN

Columns and labels:
purified sheep brain GS = experiment: Purified sheep brain GS activity (Meister's method, gamma-glutamylhydroxamate formation); assay type: biochemical
[1] = test system: glucocorticoid receptor (GR); experiment: Brain glucocorticoid receptor expression by ELISA in corticosterone-administered rats; assay type: in vivo, Wistar rats
GS [2] = target: T1, GS (Rattus norvegicus, UniProt P09606); conditions: for lung GS activity: versus PCB
GS [3] = target: T1, GS; conditions: GF 1 mg/kg, tianeptine 10 mg/kg, methyprednisolone 5 mg/kg i.p.
brain GS [4] = target: T2, brain GS (Mus musculus, UniProt P15105); conditions: 24 h after single i.p.
GS [5] = conditions: rat, in vivo
rat brain GS = rat brain GS (Rattus norvegicus, UniProt P09606); conditions: APS 1.5%
brain GS [6] = target: T2, brain GS; conditions: i.p. 7 days
[7] = 21 days, versus PCB and Control
[8] = GF 3 mg/kg, tianeptine 15 mg/kg

Q: Which results are given for `CN1c2ccccc2C(NCCCCCCC(=O)O)c2ccc(Cl)cc2S1(=O)=O` (stereo not shown) [tianeptine, 7-[(3-chloro-6,11-dihydro-6-methyl-dibenzo[c,f][1,2]thiazepin-11-yl)amino] heptanoic acid S,S-dioxide]?
A: type of competition (purified sheep brain GS): competitive with L-glutamine; inhibitory effect of tianeptine on GS activity with increasing L-glutamate (purified sheep brain GS; 5 μM tianeptine, L-glutamate 0.0016-10 mM, 12.5 mM L-glutamine): decreased as the concentration of L-glutamate increased; effect on GS activity at “high” concentrations (purified sheep brain GS; in absence of 2βME): inhibit GS activity at “high” concentrations; “low concentrations” that activate GS activity (purified sheep brain GS; in absence of 2βME): 10^−13 to 10^−16 M; effect on GS subunit (monomer) activity (purified sheep brain GS; in presence of 2β-ME (DTT for tianeptine)): inhibit GS activity at “high” concentrations; brain GR expression ([1]; GF 0.1 and 3 mg/kg, MS 0.5, 15 and 45 mg/kg, tianeptine 0.5 mg/kg, versus PCB): higher; dose relation of the increase in GR expression ([1]; rat, in vivo): inversely proportional to the dose; lung GS activity (GS [2]; 21 days, most rats): decrease in lung GS activity; brain GS activity (GS [2]; [7]): dose-dependent decrease; liver GS activity (GS [2]; [7]): clear decrease; lung GS activity (GS [2]; [8]): remained in the same range; liver GS activity (GS [2]; tianeptine 0.5 mg/kg): remained in the same range; brain GS activity (GS [2]; tianeptine 0.5 mg/kg, versus PCB and Control): remained in the same range; GS activity in the cortex (GS [3]): Trend to an Decrease; GS activity in the hippocampus (GS [3]): Increase of GS Activity; GS activity in the thalamus/hypothalamus (GS [3]; 1 h and 24 h after last administration): Decreased GS Activity; dose relation of effects on GS activity and GS expression (brain GS [4]): dose-dependent; dose with the highest GS activity (brain GS [4]): 1.25 mg/kg; whole brain GS activity (brain GS [4]; 0.078-20 mg/kg): increase GS activity; brain GS expression (GS [5]): higher; concentrations increasing GS activity in presence of APS (rat brain GS): 10^−8 to 10^−10 M; brain GS expression (brain GS [6]; [8]): increased also GS expression; whole brain GS activity (brain GS [6]; [8]): increase GS activity; dose relation of effects on GS activity and GS expression (brain GS [6]): dose-dependent; whole brain GS activity at higher doses (brain GS [6]; doses above GF 3 mg/kg, tianeptine 15 mg/kg): decreased GS activity
